# Screening data

From PubChem BioAssay record AID504749 (NCATS, 2011).

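Malaria parasite (P. falciparum) lines kept in red blood cells; parasite DNA is measured by SYBR Green fluorescence after lysis, 72 h after compound addition.
Each compound was titrated across a series from about 0.000037 to 29 µM.
The number is the fitted AC50, the concentration giving a half-maximal change in signal; a lower value means higher potency, whether the curve shows a decrease or an increase.
Calls follow the curve class and fit quality: every row here is inconclusive, covering signal-raising curves and weak, poorly fitted, partial or highest-dose-only inhibition curves.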

Values are in µM.
Every entry below has the call inconclusive.
Only part of the assay is shown, chiefly results filed as inconclusive.
Potencies fitted to partial, single-point or poorly fitting curves are rough.

For CCOP(=S)(OCC)Oc1ccc2c(C)c(Cl)c(=O)oc2c1 [CP237] the result was Potency 11.22 µM (inhibitor, single point).
For CCOP(=S)(OCC)Oc1ccc2c(C)c(Cl)c(=O)oc2c1 [ATS95] the result was Potency 7.943 µM (inhibitor, single point).
For CCOP(=S)(OCC)Oc1ccc2c(C)c(Cl)c(=O)oc2c1 [N140] the result was Potency 10 µM (inhibitor, partial curve).
For CCOP(=S)(OCC)Oc1ccc2c(C)c(Cl)c(=O)oc2c1 [CP266] the result was Potency 12 µM (inhibitor, partial curve, poor fit).
For CCOP(=S)(OCC)Oc1ccc2c(C)c(Cl)c(=O)oc2c1 [AA1029] the result was Potency 11.22 µM (inhibitor, single point).
For COc1cccc(N(C)C(=S)Oc2ccc3c(c2)CCCC3)n1 [DIV14] the result was Potency 21.33 µM (inhibitor, single point).
For COc1cccc(N(C)C(=S)Oc2ccc3c(c2)CCCC3)n1 [CP268] the result was Potency 19.01 µM (inhibitor, partial curve, poor fit).
For COc1cccc(N(C)C(=S)Oc2ccc3c(c2)CCCC3)n1 [CP260] the result was Potency 17.78 µM (inhibitor, single point).
For COc1cccc(N(C)C(=S)Oc2ccc3c(c2)CCCC3)n1 [CP191] the result was Potency 11.22 µM (inhibitor, single point).
For COc1cccc(N(C)C(=S)Oc2ccc3c(c2)CCCC3)n1 [DIV30] the result was Potency 16.94 µM (inhibitor, partial curve, poor fit).
For COc1cccc(N(C)C(=S)Oc2ccc3c(c2)CCCC3)n1 [CP203] the result was Potency 19.01 µM (inhibitor, single point).
For COc1cccc(N(C)C(=S)Oc2ccc3c(c2)CCCC3)n1 [CP291] the result was Potency 19.01 µM (inhibitor, single point).
For COc1cccc(N(C)C(=S)Oc2ccc3c(c2)CCCC3)n1 [AS120] the result was Potency 17.78 µM (inhibitor, single point).
For COc1cccc(N(C)C(=S)Oc2ccc3c(c2)CCCC3)n1 [CP286] the result was Potency 15.85 µM (inhibitor, single point).
For COc1cccc(N(C)C(=S)Oc2ccc3c(c2)CCCC3)n1 [CP215] the result was Potency 19.01 µM (inhibitor, single point).
For COc1cccc(N(C)C(=S)Oc2ccc3c(c2)CCCC3)n1 [CP335] the result was Potency 19.01 µM (inhibitor, single point).

For reference, 2 entries once more:

| structure | tested on / at | Potency (µM) | curve |
|---|---|---|---|
| `COc1cccc(N(C)C(=S)Oc2ccc3c(c2)CCCC3)n1` | CP203 | 19.01 | inhibitor, single point |
| `COc1cccc(N(C)C(=S)Oc2ccc3c(c2)CCCC3)n1` | CP260 | 17.78 | inhibitor, single point |